From PubChem BioAssay AID1273 (Columbia University Molecular Screening Center, 2008)
The list shows a part of the results. These are further read-outs of the screen, such as a control signal, another cell line or another target. No call is given for them. The list favours compounds with an active or inconclusive main result.

Test: inhibitors of insulin promoter-driven GFP, primary screen, imaging, TRM-6 cells (human fetal islet line), eGFP reporter, cell count (AID 1273;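 further: cells exposed to compound for 48 h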)
Details: measured here: cell count, toxicity, at 2 µM, reporter expression induced with tamoxifen

Compound	normalized cell count [%]
O=C(c1cncc(Br)c1)N1CCc2ccccc2C1	43.4
O=C1OC(c2ccccc2)/C(=C(/O)c2ccc(Cl)cc2)C1=O (stereo not given)	124
CCc1nc2cc(Cl)c(Cl)cc2[nH]1	131
CN(C)CCCNC1=CC(=O)CC(c2ccccc2)C1 (stereo not given)	23.6
CCOc1cccc(C2C(C#N)=C(N)Oc3cc(C)oc(=O)c32)c1OCC (stereo not given)	97.9
CCC(=NC(C)c1ccccc1)c1c(O)n(C)c(=O)n(C)c1=O (stereo not given)	23.1
Cc1ccc(C(C)C)c(OCCNS(C)(=O)=O)c1	84.3
c1nc(NC2CCCCCC2)c2[nH]cnc2n1	99.7
CN(C)c1ccc(S(=O)(=O)c2ccc(Cl)cc2)cc1	107
COC(=O)CN1C(=S)N(Cc2ccccc2)C(=O)C1CC(=O)Nc1ccc(OC)cc1 (stereo not given)	39.4
Cc1ccc(CN2C(=O)CCC2C(=O)NCCCN2CCC(C)CC2)cc1 (stereo not given)	129
COc1ccc(NS(=O)(=O)c2ccc(O)c(NC(=O)c3cc4c(C)nn(-c5ccc(F)cc5)c4s3)c2)cc1	107
O=C1Nc2ccc(S(=O)(=O)NCCC3=CCCCC3)c3cccc1c23	67.8
C=CCNC(=O)COC(=O)c1ccc(C)c(NC(=O)c2ccco2)c1	42.9
COc1cc(OC)cc(C(=O)NCC(=O)OCC(=O)Nc2ccc3c(c2)OCO3)c1	123
COc1cccc(OC)c1OCCN(C)C	92.6
Cc1ccc(C(=O)NNC2CC(=O)N(c3ccc4c(c3)OCCO4)C2=O)cc1 (stereo not given)	49.1
Cc1ccc(-c2nnn(CC(=O)N(C)C3CCCCC3)n2)o1	90.5

Exported as a markdown table: two of the compounds above.

| Compound | normalized cell count [%] |
| --- | --- |
| CCOc1cccc(C2C(C#N)=C(N)Oc3cc(C)oc(=O)c32)c1OCC (stereo not given) | 97.9 |
| CCC(=NC(C)c1ccccc1)c1c(O)n(C)c(=O)n(C)c1=O (stereo not given) | 23.1 |

Remaining list, next part.

Compound	normalized cell count [%]
O=C(NCCCn1ccnc1)c1cc([N+](=O)[O-])cc([N+](=O)[O-])c1	167
O=C(O)c1cccc(NC(=S)N/N=C/c2cccc(O)c2)c1	32.6
Cc1cc(NCCO)nc(-n2nc(C)cc2C)n1	61.5
Cc1nc2ccccc2c(=O)n1NC(=O)c1ccccc1[N+](=O)[O-]	43.5
Cc1ccccc1-c1noc(-c2cccs2)n1	98.4
CCN1C(=O)C(O)(CC(=O)c2ccccn2)c2ccccc21 (stereo not given)	25.8
COc1cc(OC)c(C2=NOC(C(=O)Nc3c(C)nn(CC(=O)N4CCCC4)c3C)C2)cc1Cl (stereo not given)	90.3
COc1cccc(-c2nn(C)c3sc(C(=O)NCc4ccc(C)o4)cc23)c1	66.8
CC(=O)Nc1nn(C)c2nc3cc(C)ccc3cc12	71.9
CCOC(=O)C1CCN(C(=O)CSc2n[nH]c(=O)[nH]c2=O)CC1	112
Cc1nc2c3cc(F)ccc3n(Cc3ccc(F)cc3)c2s1	116
O=C(O)c1ccc(-c2ncc[nH]2)cc1	40.7
COC(=O)CSCC(=O)Nc1cc2c(cc1C(C)=O)OCO2	51.8
COc1ccc(CN2C3CCCC2CC(NC(=O)Nc2ccccc2)C3)cc1 (stereo not given)	35.8
O=C(Nc1ccc(S(=O)(=O)N2CCCCC2)cc1)c1ccc(CN2CCOCC2)cc1	100
Cc1cccc(-c2noc(-c3ccccc3C(=O)NCC3CCCO3)n2)c1 (stereo not given)	97.5
COc1ccc(C2C3=C(N=C4SCC(=O)N42)c2ccccc2CC3)cc1 (stereo not given)	90.1
